# Assay results published in PubChem BioAssay AID2517 (National Center for Advancing Translational Sciences (NCATS), 2010).
# Chains of the proteins cited; added tags and fusions are not shown.
# UniProt P27695, whole entry, looked up: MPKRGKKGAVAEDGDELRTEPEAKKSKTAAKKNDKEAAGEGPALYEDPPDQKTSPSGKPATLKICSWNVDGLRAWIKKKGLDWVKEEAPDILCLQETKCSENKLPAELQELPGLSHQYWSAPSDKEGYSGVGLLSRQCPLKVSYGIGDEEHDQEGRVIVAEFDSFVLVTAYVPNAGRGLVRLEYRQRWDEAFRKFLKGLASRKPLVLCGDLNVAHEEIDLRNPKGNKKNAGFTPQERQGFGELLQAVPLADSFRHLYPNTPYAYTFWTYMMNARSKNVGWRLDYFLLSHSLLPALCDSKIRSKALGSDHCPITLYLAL
# About 1,200 (0.34%) of roughly 350,000 compounds were called active. Calls come from the whole dose curve; as a rule, active = well fitted inhibition curve with a large enough effect; inconclusive = small, poorly fitted or top-dose-only effect; inactive = no such curve, though single readings can be large or run the other way. Inconclusive results, whose numbers are uncertain, are shown. Where the call is inconclusive, the potency comes from a doubtful curve fit.
# Target: DNA repair nuclease/redox regulator APEX1 (Homo sapiens) (UniProt P27695)
# Assay: qHTS Assay for Inhibitors of the Human Apurinic/apyrimidinic Endonuclease 1 (APE1); note: nearly all actives have a fitted effect of over 55% in size
# Settings: recombinant APE1, TAMRA/BHQ-2 abasic DNA cleavage fluorescence; series mostly up to 65.8 µM
# Text: The apurinic/apyrimidinic endonuclease APE1 is the primary mammalian enzyme responsible for the removal of abasic (or AP) sites in DNA and functions centrally in the base excision DNA repair (BER) pathway. […] Thus, targeting APE1 could improve the efficacy of current treatment paradigms by promoting selective sensitization or protection of diseased and normal cells, respectively.
# Inhibition of APE1 activity was screened by utilizing double-stranded short substrate containing tetrahydrofuran (THF) abasic site labeled with rhodamine-type fluorophore (TAMRA) at the 5'-end and with non-fluorescent Black Hole Quencher-2 (BHQ-2) at the opposing 3'-end. An increase in the fluorescence intensity due to incision of the abasic site by APE1 was used to measure the enzyme activity.
# NIH Chemical Genomics Center [NCGC]
# NIH Molecular Libraries Probe Centers Network [MLPCN]
# Assay Provider: David M. Wilson, III, National Institute on Aging, NIH
# Three uL of enzyme solution (0.75 nM APE1 final concentration) was dispensed to 1536-well Greiner black solid bottom plates. […] The plates were incubated for 15 min at room temperature, and then 1 uL of substrate solution (50 nM final concentration of TAMRA/BHQ-2) was added to start the reaction. The plates were immediately transferred into ViewLux High-throughput CCD imager (Perkin-Elmer) in order to measure the reaction progress in kinetic mode (three reads every 60 seconds) using 525 nm excitation and 598 nm emission fluorescence protocol. The fluorescence intensity difference between the third and the first time points was used to compute reaction progress. Results were normalized to buffer only columns and NSC13755 positive controls and negative control DMSO treated wells.
# Potency is the fitted concentration of half-maximal effect.
row,Structure (SMILES),Potency
1,CC(c1ccccc1)N1C(=O)c2ccc(C(=O)Nc3ccccc3C(=O)O)cc2C1=O (stereo not given),"inconclusive: 8.44 µM [inhibitor, single point]"
2,Cc1c(CC(=O)O)c(=O)oc2c(C)c3occ(-c4ccc(Br)cc4)c3cc12,"inconclusive: 29.9 µM [inhibitor, single point]"
3,COc1cc(/C=C2\C(=N)N3N=C(S(C)(=O)=O)SC3=NC2=O)ccc1OCCOc1ccccc1C,"inconclusive: 29.9 µM [inhibitor, single point]"
4,CC(C)(C)c1ccc2c(c1)OC(C(=O)N/N=C\c1ccc(-c3cccc(C(=O)O)c3)o1)CO2 (stereo not given),"inconclusive: 17.8 µM [inhibitor, partial curve]"
5,O=C(O)COc1ccccc1/C=N/NC(=O)CSc1nnc(SCc2cccc3ccccc23)s1,"inconclusive: 25.1 µM [inhibitor, single point]"
